Experimental data taken from patent publication US20110052564A1.
These are yes or no findings as the source states them, for the method shown. Some binding calls cover weakened binding; strength is not graded here.

Chains of the proteins cited; added tags and fusions are not shown. Residues count along the entry.
UniProt P02751, 184-273: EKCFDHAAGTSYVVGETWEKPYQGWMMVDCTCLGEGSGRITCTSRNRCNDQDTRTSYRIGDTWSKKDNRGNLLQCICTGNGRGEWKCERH

Biological target: crossbeta E2 (cE2), E2 affinity purified on the anti-E2 antibody V3 column (Classical Swine Fever Virus) (UniProt P21530)
Assay: ELISA, coated E2 form, Fn F4-5 concentration series, anti-FLAG detection

Question: How did the binding turn out when “fourth and fifth finger domain of fibronectin (Fn F4-5) with C-terminal FLAG-tag (from UniProt P02751 184-273)” was run?
Answer: The binding was “binds”.
